Assay results from patent US20210130445A1 (priority 2019, published 2021).
Some entries share one result that the patent states for a list of compounds.

Set-up: species or system human
Settings: in vivo, sc

In the case of onabotulinumtoxinA, the “time after neurotoxin administration until the patient's pain is substantially alleviated” value is reported as 1 to 7 days.
